Assay results as given in patent US20110152500A1.
These are yes or no findings as the source states them, for the method shown. Some binding calls cover weakened binding; strength is not graded here. Values belong to the binder of their own block, whether it stands above or below them.

Protein sequences, listed by entry. Tags and fused reporters are not part of them. Lines headed by an entry give the natural chain unless they say otherwise; changes in a name come on top. Chains listed by the source or under a name are the forms on record and can include a tag or linker. Residues count along the entry.
UniProt P02768, residues 25-609: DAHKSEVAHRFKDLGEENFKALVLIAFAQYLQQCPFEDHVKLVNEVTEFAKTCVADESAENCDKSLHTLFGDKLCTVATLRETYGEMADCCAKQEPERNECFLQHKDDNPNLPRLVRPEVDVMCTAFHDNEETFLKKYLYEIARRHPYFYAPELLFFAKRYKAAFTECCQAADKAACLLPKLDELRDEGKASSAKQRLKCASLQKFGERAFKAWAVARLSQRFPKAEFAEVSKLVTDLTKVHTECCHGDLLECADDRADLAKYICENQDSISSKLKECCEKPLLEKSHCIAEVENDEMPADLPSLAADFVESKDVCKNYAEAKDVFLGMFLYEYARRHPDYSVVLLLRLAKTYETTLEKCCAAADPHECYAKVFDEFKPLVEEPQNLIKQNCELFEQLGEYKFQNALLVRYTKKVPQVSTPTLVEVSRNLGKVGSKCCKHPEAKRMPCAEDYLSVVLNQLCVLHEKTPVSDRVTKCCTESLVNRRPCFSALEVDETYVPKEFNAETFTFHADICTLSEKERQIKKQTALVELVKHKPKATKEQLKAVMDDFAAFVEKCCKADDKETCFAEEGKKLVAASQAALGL
UniProt Q99836: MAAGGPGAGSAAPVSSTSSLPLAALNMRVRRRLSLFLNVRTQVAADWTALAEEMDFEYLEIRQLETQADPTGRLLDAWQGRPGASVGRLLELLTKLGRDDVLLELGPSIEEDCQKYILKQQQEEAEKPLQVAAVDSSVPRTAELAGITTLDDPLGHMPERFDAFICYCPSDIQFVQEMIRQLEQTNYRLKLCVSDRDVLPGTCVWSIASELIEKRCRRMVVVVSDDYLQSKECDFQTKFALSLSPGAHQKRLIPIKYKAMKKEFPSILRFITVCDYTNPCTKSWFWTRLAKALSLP
VEGF121 (P15692, form named): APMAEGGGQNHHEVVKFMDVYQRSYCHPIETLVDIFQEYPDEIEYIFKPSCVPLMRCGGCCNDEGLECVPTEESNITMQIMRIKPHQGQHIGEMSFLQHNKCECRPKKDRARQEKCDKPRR

Assays:
[1] = target: Human serum albumin (human) (UniProt P02768); assay: phage ELISA, clones with higher absorbance than on BSA, sequenced
[2] = target: Human serum albumin (human) (UniProt P02768); assay: ELISA of recombinant phage on coated proteins, anti-M13-HRP
[3] = target: Human serum albumin (human) (UniProt P02768); assay: phage ELISA: recombinant phage on wells coated with 5 µg/ml protein, HRP anti-M13 antibody, TMB, absorbance at 450 nm
Human MyD88 (human) [4] = target: Human MyD88 (human) (UniProt Q99836); assay: phage ELISA, clones with higher absorbance than on BSA, sequenced
Human MyD88 (human) [5] = target: Human MyD88 (human) (UniProt Q99836); assay: ELISA of recombinant phage on coated proteins, anti-M13-HRP
Human MyD88 (human) [6] = target: Human MyD88 (human) (UniProt Q99836); assay: phage ELISA: recombinant phage on wells coated with 5 µg/ml protein, HRP anti-M13 antibody, TMB, absorbance at 450 nm
VEGF121 (human) = VEGF121 (human) (UniProt P15692); assay: phage ELISA, clones with higher absorbance than on BSA, sequenced

Binder: AASPYKGSWTWENGKWTWKGGWRMKM [Peptide 1 specific to HSA (bipodal-peptide binder)]
binding [2]: binds
binding [1]: binds
binding [3]: binds

Binder: ASTINFGSWTWENGKWTWKGYTRRWN [Peptide 2 specific to MyD88 (bipodal-peptide binder)]
binding (Human MyD88 (human) [4]): binds

Binder: YAHVYYGSWTWENGKWTWKGHRVTQT [Peptide 3 specific to HSA (bipodal-peptide binder)]
binding [1]: binds

Binder: HSHAFYGSWTWENGKWTWKGNPGWWT [Peptide 1 specific to MyD88 (bipodal-peptide binder)]
binding (Human MyD88 (human) [5]): binds
binding (Human MyD88 (human) [4]): binds
binding (Human MyD88 (human) [6]): binds

Binder: SANSLYGSWTWENGKWTWKGTSRQRW [Peptide 2 specific to HSA (bipodal-peptide binder)]
binding [1]: binds

Other lines, results leading:

binding [1]: binds
Binder: YAHFGWGSWTWENGKWTWKGTTDSQS [Peptide 5 specific to HSA (bipodal-peptide binder)]

binding [1]: binds
binding (VEGF121 (human)): binds
Binder: YGAYPWGSWTWENGKWTWKGWRVSRD [Peptide 4 specific to VEGF (bipodal-peptide binder)]
